Laboratory results as given in publication PMC6138711.
These are yes or no findings as the source states them, for the method shown. In cells and extracts the contact can be indirect. Some binding calls cover weakened binding; strength is not graded here.

The chains behind the UniProt entries cited, without tags or fusion partners.
UniProt Q69YN4: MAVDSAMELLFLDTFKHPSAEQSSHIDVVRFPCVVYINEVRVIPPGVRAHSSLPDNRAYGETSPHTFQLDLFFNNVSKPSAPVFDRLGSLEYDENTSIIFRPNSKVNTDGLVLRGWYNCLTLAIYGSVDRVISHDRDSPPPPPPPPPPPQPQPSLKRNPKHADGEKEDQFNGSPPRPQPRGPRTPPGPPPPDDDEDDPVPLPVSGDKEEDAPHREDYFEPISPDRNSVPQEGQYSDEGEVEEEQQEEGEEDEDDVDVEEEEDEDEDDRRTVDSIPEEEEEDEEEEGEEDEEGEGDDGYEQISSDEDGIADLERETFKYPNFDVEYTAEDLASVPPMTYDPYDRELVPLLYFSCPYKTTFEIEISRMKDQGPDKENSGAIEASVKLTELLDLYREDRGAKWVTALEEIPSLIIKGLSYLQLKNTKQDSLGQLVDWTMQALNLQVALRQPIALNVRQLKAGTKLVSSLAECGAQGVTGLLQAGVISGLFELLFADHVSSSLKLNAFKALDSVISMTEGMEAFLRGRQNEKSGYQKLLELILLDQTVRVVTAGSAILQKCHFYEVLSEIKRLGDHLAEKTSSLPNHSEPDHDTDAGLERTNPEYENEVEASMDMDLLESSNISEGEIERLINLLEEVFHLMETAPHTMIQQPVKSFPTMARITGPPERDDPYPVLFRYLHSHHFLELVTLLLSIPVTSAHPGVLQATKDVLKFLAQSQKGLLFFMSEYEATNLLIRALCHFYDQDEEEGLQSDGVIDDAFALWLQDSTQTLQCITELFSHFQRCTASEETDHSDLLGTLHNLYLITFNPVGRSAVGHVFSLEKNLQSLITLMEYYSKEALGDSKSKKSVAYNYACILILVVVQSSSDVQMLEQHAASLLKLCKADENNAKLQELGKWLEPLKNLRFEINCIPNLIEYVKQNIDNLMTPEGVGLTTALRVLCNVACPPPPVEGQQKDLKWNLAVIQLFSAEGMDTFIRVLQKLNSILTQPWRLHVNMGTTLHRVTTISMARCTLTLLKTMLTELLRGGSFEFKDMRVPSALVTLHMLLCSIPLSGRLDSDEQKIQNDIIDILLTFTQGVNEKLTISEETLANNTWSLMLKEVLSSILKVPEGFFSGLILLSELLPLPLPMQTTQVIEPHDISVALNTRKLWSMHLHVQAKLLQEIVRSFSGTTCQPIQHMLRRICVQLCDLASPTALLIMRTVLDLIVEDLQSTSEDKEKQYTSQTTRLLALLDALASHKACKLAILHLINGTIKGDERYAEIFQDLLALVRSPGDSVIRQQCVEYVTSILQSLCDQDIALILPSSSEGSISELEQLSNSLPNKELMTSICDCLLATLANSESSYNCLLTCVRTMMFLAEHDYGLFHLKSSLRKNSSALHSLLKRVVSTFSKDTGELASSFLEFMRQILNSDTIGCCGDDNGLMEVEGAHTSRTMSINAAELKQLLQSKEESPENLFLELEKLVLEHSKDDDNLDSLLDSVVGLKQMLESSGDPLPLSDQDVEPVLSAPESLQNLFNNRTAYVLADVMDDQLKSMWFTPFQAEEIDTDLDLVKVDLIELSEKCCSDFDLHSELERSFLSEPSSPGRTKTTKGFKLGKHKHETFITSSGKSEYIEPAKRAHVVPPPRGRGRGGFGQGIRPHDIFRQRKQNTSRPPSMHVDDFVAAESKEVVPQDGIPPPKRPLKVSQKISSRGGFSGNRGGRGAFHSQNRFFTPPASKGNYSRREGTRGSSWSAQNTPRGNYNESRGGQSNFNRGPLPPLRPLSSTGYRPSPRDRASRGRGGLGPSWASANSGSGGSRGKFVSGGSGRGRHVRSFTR
UniProt Q86U44: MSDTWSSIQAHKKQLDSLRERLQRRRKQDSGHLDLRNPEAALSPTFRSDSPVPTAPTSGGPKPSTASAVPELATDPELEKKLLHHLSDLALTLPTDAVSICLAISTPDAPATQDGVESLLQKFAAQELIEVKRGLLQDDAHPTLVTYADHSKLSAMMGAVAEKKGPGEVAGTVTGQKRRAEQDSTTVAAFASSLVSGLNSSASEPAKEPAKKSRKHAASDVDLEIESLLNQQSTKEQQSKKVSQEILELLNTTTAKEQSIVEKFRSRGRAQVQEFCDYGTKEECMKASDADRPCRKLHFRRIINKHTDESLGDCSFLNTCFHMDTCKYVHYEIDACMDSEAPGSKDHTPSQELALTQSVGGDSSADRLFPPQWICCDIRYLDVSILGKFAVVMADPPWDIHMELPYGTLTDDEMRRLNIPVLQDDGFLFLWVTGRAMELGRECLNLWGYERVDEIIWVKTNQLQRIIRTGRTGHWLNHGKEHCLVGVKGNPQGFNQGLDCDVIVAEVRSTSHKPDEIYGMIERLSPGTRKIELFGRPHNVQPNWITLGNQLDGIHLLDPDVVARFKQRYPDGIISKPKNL
UniProt Q13838: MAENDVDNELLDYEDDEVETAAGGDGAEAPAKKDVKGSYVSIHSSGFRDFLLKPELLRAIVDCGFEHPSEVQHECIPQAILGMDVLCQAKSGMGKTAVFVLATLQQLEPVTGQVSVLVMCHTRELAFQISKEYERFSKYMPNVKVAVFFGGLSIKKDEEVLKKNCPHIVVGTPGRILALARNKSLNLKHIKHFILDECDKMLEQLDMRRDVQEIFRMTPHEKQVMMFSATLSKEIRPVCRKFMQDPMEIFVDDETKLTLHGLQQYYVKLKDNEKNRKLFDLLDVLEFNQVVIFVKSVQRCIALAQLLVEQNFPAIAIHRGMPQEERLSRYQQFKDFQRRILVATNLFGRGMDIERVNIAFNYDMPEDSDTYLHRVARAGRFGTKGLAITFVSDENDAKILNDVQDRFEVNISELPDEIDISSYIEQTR

Columns and labels:
Test in all cases: co-IP; antibody to the endogenous bait on Protein-G Dynabeads, cell extract in IP lysis buffer (50 mM HEPES-NaOH pH 7.5, 100 mM NaCl, 1 mM EDTA, 0.1% Triton X-100, 10% glycerol, 1 mM DTT) with RNase A and DNase 1, 2 h at 4 °C, Western blot; control IP with anti-FLAG; some panels after RNAi of KIAA1429, WTAP, METTL3 or ALYREF/CHTOP
[1] = biological target: T1, WTAP (human (endogenous in 293T)) (UniProt Q15007)
T1 sequence: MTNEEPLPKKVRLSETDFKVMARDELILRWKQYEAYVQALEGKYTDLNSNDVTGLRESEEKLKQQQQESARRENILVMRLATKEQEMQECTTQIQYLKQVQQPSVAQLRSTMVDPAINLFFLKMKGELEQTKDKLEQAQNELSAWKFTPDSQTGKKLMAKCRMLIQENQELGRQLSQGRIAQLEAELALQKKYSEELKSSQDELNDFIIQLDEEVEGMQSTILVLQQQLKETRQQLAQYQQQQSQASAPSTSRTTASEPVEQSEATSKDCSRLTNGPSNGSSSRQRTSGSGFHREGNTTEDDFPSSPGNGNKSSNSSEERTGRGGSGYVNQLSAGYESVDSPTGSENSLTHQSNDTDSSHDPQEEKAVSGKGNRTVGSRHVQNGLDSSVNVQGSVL

[2] = biological target: KIAA1429 (human (endogenous in 293T)) (UniProt Q69YN4)
[3] = biological target: METTL3 (human (endogenous in 293T)) (UniProt Q86U44)
[4] = biological target: T2, METTL14 (human (endogenous in 293T)) (UniProt Q9HCE5)
T2 sequence: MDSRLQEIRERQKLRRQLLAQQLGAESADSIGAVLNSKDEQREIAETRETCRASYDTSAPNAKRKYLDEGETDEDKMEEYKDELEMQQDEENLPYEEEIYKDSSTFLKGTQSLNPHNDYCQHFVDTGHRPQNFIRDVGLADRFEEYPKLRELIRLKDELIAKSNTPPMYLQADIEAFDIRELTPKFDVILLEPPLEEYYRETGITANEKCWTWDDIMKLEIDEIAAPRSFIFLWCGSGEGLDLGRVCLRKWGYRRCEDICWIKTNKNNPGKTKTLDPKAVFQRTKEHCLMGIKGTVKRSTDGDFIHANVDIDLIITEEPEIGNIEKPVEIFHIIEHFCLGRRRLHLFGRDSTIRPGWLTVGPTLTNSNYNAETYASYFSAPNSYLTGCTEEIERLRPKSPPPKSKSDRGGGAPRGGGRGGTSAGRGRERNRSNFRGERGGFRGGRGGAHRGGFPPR

Measured: binding

UAP56 (from UniProt Q13838 1-428)
binds: all assays above

B1: THOC5 (protein, UniProt Q13769 1-683)
chain: MSSESSKKRKPKVIRSDGAPAEGKRNRSDTEQEGKYYSEEAEVDLRDPGRDYELYKYTCQELQRLMAEIQDLKSRGGKDVAIEIEERRIQSCVHFMTLKKLNRLAHIRLKKGRDQTHEAKQKVDAYHLQLQNLLYEVMHLQKEITKCLEFKSKHEEIDLVSLEEFYKEAPPDISKAEVTMGDPHQQTLARLDWELEQRKRLAEKYRECLSNKEKILKEIEVKKEYLSSLQPRLNSIMQASLPVQEYLFMPFDQAHKQYETARHLPPPLYVLFVQATAYGQACDKTLSVAIEGSVDEAKALFKPPEDSQDDESDSDAEEEQTTKRRRPTLGVQLDDKRKEMLKRHPLSVMLDLKCKDDSVLHLTFYYLMNLNIMTVKAKVTTAMELITPISAGDLLSPDSVLSCLYPGDHGKKTPNPANQYQFDKVGILTLSDYVLELGHPYLWVQKLGGLHFPKEQPQQTVIADHSLSASHMETTMKLLKTRVQSRLALHKQFASLEHGIVPVTSDCQYLFPAKVVSRLVKWVTVAHEDYMELHFTKDIVDAGLAGDTNLYYMALIERGTAKLQAAVVLNPGYSSIPPVFQLCLNWKGEKTNSNDDNIRAMEGEVNVCYKELCGPWPSHQLLTNQLQRLCVLLDVYLETESHDDSVEGPKEFPQEKMCLRLFRGPSRMKPFKYNHPQGFFSHR
binds: all assays above
